Library screening results

Chains of the proteins cited; added tags and fusions are not shown.
UniProt E9BF75, entry or part of it: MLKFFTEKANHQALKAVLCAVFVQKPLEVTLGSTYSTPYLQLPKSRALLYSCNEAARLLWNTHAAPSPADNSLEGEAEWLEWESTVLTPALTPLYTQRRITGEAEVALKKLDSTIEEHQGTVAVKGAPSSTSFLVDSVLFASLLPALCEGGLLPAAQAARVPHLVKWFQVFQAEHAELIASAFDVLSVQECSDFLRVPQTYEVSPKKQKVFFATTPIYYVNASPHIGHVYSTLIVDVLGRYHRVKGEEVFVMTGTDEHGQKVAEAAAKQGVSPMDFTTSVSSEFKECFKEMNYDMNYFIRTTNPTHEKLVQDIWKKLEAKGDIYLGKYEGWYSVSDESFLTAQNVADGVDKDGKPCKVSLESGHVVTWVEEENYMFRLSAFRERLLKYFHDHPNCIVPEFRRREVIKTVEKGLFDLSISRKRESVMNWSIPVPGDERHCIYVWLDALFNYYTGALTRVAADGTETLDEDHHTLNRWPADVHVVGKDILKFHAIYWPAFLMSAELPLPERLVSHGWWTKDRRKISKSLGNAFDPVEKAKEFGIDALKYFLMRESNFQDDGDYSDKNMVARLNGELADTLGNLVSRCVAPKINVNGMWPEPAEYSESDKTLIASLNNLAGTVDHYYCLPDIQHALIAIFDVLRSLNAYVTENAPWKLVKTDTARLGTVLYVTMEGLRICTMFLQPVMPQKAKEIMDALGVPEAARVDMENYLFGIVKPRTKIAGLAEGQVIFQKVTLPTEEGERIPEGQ

Results are percentages, as filed. How 0% and 100% were set is not recorded. Most values in the screen are low, and negative values occur. The compounds are a random part of those screened.

LdMetRS: 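Primary screen of methionyl-tRNA synthetase; the read-out is not stated. Target: Methionyl-tRNA synthetase (putative), Leishmania donovani (UniProt E9BF75). The test concentration is not given. Values are per cent inhibition. About 68,000 compounds were tested under these conditions; 0.035% (about 24) showed 50% or more at least once.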
Mtb heat-shock: 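Assay on Mycobacterium tuberculosis, filed only as a heat shock assay from Cornell; the read-out is not stated. The concentration is filed as 10 mM, unlikely as a test dose, so the dose is not known. The record gives no direction; compounds that gave an IC50 in retests scored well above the rest, so higher reads as stronger inhibition. About 69,000 compounds were tested under these conditions; 1.4% (about 930) showed 50% or more at least once.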

SMILES: COc1ccc(CNC(=O)NCc2nc(C)c(C)s2)cn1
LdMetRS: 22.34
Mtb heat-shock: 9.531

SMILES: CC(C)(O)CN1CCN(C(=O)COC2CCCC2)CC1
LdMetRS: 10.42
Mtb heat-shock: 16.27

SMILES: Fc1ccc(CN2Cc3nccn3CC(CN3CCOCC3)C2)cc1.O=C(O)C(F)(F)F.O=C(O)C(F)(F)F (stereo not drawn)
Mtb heat-shock: -30.99

SMILES: CS(=O)(=O)N1CCC(C(=O)N2CCC3(CC2)OCCCO3)CC1
LdMetRS: 13.73
Mtb heat-shock: -9.358

SMILES: O=C(O)C(F)(F)F.[H][C@@]12CCN(Cc3ccc(CC)o3)C[C@@]1([H])O[C@@H](c1nnc(C)[nH]1)C2
Mtb heat-shock: -34.17

SMILES: O=C1NCC[C@]12CN(Cc1ccsc1)C[C@H]2c1ccccc1
LdMetRS: 16.44
Mtb heat-shock: 8.366

SMILES: Cc1cc(CNC2(c3ccccc3)CCCCC2)no1
LdMetRS: 10.08
Mtb heat-shock: -23.12

SMILES: Cc1cnn(C2CCCN(C(=O)CCc3cnn(C)c3)C2)c1 (stereo not drawn)
LdMetRS: 20.56
Mtb heat-shock: -11.33

SMILES: CC(O)(CN1CCN(CCO)CC1)c1cccc(C(F)(F)F)c1 (stereo not drawn)
LdMetRS: 5.682
Mtb heat-shock: -14.19

SMILES: Cc1cncc(C(=O)N2C[C@H]3CCC[C@@]3(COc3ccccn3)C2)c1
LdMetRS: 8.497

SMILES: CC(C1CCN(Cc2ccc(N(C)C)nc2)CC1)N1CCOCC1 (stereo not drawn)
LdMetRS: 6.643
Mtb heat-shock: -22.49

SMILES: O=C(O)C1CCCCN1C(=O)c1cccc(C(F)(F)F)c1 (stereo not drawn)
LdMetRS: 15.75
Mtb heat-shock: 11.85

SMILES: Cl.O[C@@H]1CN(Cc2ccc(F)cc2)CC[C@H]1NCc1ccccn1
Mtb heat-shock: -18.24

SMILES: COc1ccc(CN2C[C@@H](F)[C@@H](OCc3nc4ccccc4[nH]3)C2)cn1
LdMetRS: 15.79
Mtb heat-shock: -29.6

SMILES: CCNC(=O)NC(=O)CNC(C)(CC)c1nccs1 (stereo not drawn)
LdMetRS: 5.301
Mtb heat-shock: 13.8

SMILES: CCc1ncc(C(=O)N2CCCN(C3CCCC3)CC2)cn1
LdMetRS: 8.403
Mtb heat-shock: -5.155

SMILES: CCC(C)N(Cc1ccncc1)C(=O)CCC(=O)OC (stereo not drawn)
LdMetRS: 5.476
Mtb heat-shock: -3.871

SMILES: CCc1nccn1C1CCCN(C(=O)c2ccoc2C)C1 (stereo not drawn)
LdMetRS: 8.282
Mtb heat-shock: -9.279

SMILES: CCC[C@@H]1CN(c2ncnc3ccsc23)C[C@H]1NS(C)(=O)=O
LdMetRS: 15.25
Mtb heat-shock: -20.14

SMILES: [H][C@@]12CN(Cc3ccc(C#N)cc3)C[C@]1([H])OCC(=O)N2CC(N)=O
Mtb heat-shock: -9.875

SMILES: [H][C@@]12CCN(C(=O)c3c(C)noc3C)C[C@]1(c1nc(C)no1)CCO2
Mtb heat-shock: -15.68

SMILES: CCC(C)(C)NC(=O)CN(C)C(c1cccc(F)c1)c1ccccn1 (stereo not drawn)
LdMetRS: 10.93
Mtb heat-shock: -14.14

SMILES: Nc1cc(C(=O)N2C[C@H]3CC[C@@H]2CN(Cc2cccnc2)C3)ccn1
LdMetRS: 12.8

SMILES: COc1ccc(Oc2ccc(C(F)(F)F)cn2)cc1CN1CCCC1
LdMetRS: 13.71
Mtb heat-shock: 9.775

SMILES: Cc1noc(C)c1C(=O)N1CCC2(CC1)CC(Oc1ccccc1)CO2 (stereo not drawn)
LdMetRS: 10.53
Mtb heat-shock: -24.89

SMILES: [H][C@]12CCN(C(=O)c3ccoc3)[C@@]1([H])CC[C@H](COCc1ccncc1)O2
Mtb heat-shock: -23.07

SMILES: CN(C)C(c1ccccn1)[C@H]1CC[C@H](CNC(=O)C2CC2)CC1 (stereo partly drawn)
LdMetRS: 15.96
Mtb heat-shock: -5.503

SMILES: CCC(C)(NCc1nc(C)c(C)o1)c1nccs1 (stereo not drawn)
LdMetRS: 0.7246
Mtb heat-shock: -7.115

SMILES: N#Cc1ccc(NC2CCN(Cc3ccccn3)CC2)c(F)c1
LdMetRS: 10.15
Mtb heat-shock: -15.37

SMILES: CC(C)(C)C(O)CN1CCN(Cc2nccn2CC(F)(F)F)CC1 (stereo not drawn)
LdMetRS: 11.46
Mtb heat-shock: -0.2115

SMILES: Cc1c(C)n2c(SCC(=O)N3CCCC3)nnc2[nH]c1=O
LdMetRS: 6.475
Mtb heat-shock: -2.295

SMILES: c1ccc(N2CC[C@@H]3CN(Cc4ccncc4)CCO[C@@H]3C2)cc1
LdMetRS: 23.36

SMILES: COCC(=O)NC(C)c1sc(-c2ccccc2F)nc1C (stereo not drawn)
LdMetRS: 13.18
Mtb heat-shock: -0.2951

SMILES: Cc1n[nH]c(C2CN(C(=O)CCc3ccco3)CCO2)n1 (stereo not drawn)
LdMetRS: 11.27
Mtb heat-shock: -0.4221

SMILES: CC(=O)Nc1nc(C(=O)N2CCCC2Cn2cc(C)cn2)cs1 (stereo not drawn)
LdMetRS: 11.81
Mtb heat-shock: -8.127

SMILES: Nc1nc(CCC(=O)N2CCOC(CC3CCCCC3)C2)cs1 (stereo not drawn)
LdMetRS: 20
Mtb heat-shock: 16.26

SMILES: Cc1cccc(NC(=O)N2CCCn3cnc(CN4CCCC4)c3C2)c1
LdMetRS: 15.24

SMILES: CCCc1nnsc1C(=O)NCC1CCN(c2ccccn2)CC1
LdMetRS: 14.29
Mtb heat-shock: 12.01

Repeated from the top, 2 entries:

SMILES	LdMetRS	Mtb heat-shock
COc1ccc(CNC(=O)NCc2nc(C)c(C)s2)cn1	22.34	9.531
CC(C)(O)CN1CCN(C(=O)COC2CCCC2)CC1	10.42	16.27

From ChEMBL document CHEMBL3988442, “University of Dundee, Small-Polar-MMV Screening Library” (2021).